We go through one substance from PMC3454373.

These are yes or no findings as the source states them, for the method shown. Binding seen in cells or lysates may run through a third protein. A result given as binding can be weak or reduced; the word gives no strength.

The experiment deals with EhXRN2 exoribonuclease (Entamoeba histolytica (endogenous in HM1-IMSS trophozoites)) (UniProt C4MB40). The experiment in a line: co-IP; anti-EhCAF1 or anti-EhXRN2 antibodies (1:100) with protein G beads; cytoplasmic proteins (50 ug) of E. histolytica trophozoites in HNTG buffer (20 mM HEPES pH 7.5, 150 mM NaCl, 0.1% Triton, 10% glycerol), 4 C; Western blot. A general note: Immunoblotting shows a protein as a band on a membrane.

Regarding “actin protein (from UniProt P11426 1-376)”, the binding result is “binds”.
